Our source for the binding values is PMC5227109.

Results are given in words; binding and its absence hold for the method and conditions named. Some results given as binding are weak or reduced against the parent protein; the word gives no strength.

The target in test [1] is T1, S. cerevisiae Smc3, recombinant (the Smc3 chain of m1) (S. cerevisiae) (UniProt P47037).
T1 sequence: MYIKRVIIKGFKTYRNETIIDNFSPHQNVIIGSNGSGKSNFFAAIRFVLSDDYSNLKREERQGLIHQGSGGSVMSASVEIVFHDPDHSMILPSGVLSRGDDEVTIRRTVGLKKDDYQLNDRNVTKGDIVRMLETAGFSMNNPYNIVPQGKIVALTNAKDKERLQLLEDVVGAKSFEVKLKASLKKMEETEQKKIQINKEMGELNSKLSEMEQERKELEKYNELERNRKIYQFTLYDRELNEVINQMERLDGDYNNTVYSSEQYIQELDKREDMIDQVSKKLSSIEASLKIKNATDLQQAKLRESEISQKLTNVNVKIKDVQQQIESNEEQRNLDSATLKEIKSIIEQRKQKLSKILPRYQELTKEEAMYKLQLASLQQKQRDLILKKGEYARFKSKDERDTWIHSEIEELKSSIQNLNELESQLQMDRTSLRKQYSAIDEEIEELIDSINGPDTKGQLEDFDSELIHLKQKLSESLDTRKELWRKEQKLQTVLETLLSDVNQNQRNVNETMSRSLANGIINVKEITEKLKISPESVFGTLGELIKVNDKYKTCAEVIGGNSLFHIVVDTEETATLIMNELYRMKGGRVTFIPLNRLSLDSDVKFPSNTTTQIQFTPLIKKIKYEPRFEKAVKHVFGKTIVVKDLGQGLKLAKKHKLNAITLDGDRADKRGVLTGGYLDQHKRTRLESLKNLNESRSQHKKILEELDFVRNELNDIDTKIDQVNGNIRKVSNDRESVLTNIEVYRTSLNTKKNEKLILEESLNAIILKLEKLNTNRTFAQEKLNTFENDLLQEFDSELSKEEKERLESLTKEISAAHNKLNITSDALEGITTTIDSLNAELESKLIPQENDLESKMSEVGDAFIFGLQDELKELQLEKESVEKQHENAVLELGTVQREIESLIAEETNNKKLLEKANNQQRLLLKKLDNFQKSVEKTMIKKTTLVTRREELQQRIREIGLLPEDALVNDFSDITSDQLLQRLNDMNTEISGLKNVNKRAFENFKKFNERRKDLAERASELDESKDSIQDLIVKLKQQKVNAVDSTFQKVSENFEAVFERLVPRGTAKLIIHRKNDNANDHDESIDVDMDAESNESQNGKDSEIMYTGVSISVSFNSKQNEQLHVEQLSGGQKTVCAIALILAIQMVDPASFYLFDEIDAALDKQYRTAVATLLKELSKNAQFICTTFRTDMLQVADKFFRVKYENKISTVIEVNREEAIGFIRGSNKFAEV
In words: cross-linking; XL-MS: 0.4 μM cohesin, 0.8 μM full-length Scc2–Scc4 and 0.8 μM 56-bp dsDNA in 20 mM HEPES pH 7.5, 50 mM NaCl, 5 mM DTT, 5 mM MgCl2, 1 mM ATP, 10% glycerol; 5–8 mM d0/d12 DSS, 28 °C 40 min; xQuest/xProphet, FDR 1%; both purified.

Test [2] concerns the target T2, S. cerevisiae Rad21 (Scc1), recombinant (the Rad21 chain of m1) (S. cerevisiae) (UniProt Q12158).
T2 sequence: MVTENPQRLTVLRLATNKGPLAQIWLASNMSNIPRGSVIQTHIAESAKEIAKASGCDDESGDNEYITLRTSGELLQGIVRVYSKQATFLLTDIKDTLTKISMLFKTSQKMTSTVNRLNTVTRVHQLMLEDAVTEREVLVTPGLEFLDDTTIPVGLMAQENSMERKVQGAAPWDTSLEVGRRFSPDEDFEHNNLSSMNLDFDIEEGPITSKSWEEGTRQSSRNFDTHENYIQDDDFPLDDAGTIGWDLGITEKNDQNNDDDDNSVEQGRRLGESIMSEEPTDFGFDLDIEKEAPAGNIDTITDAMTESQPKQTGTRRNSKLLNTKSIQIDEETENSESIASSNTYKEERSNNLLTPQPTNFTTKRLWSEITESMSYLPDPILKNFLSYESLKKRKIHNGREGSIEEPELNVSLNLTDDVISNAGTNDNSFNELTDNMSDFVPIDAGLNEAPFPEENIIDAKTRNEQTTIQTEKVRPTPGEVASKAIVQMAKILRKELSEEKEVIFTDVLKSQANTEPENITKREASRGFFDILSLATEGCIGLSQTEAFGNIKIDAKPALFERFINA
The test is described as follows: co-purification; Smc1, Smc3, Rad21 (N-terminal double Strep-tag II) and Scc3 co-expressed in Sf21 cells; Strep-Tactin, anion exchange Porous Q, Superose 6 SEC; final buffer 20 mM HEPES pH 7.5, 500 mM NaCl, 2 mM MgCl2, 0.5 mM TCEP.

B1: S. cerevisiae Scc2, recombinant (the Scc2 chain of m2) (protein, UniProt Q04002 1-1493)
chain: MSYPGKDKNIPGRIIEALEDLPLSYLVPKDGLAALVNAPMRVSLPFDKTIFTSADDGRDVNINVLGTANSTTSSIKNEAEKERLVFKRPSNFTSSANSVDYVPTNFLEGLSPLAQSVLSTHKGLNDSINIEKKSEIVSRPEAKHKLESVTSNAGNLSFNDNSSNKKTKTSTGVTMTQANLAEQYLNDLKNILDIVGFDQNSAEIGNIEYWLQLPNKKFVLTTNCLTKLQMTIKNITDNPQLSNSIEITWLLRLLDVMVCNIKFSKSSLKMGLDDSMLRYIALLSTIVLFNIFLLGKNDSNLHRESYIMEPVNFLSDLIESLKILTIEYGSLKIEFDTFQEALELLPKYIRNGPFLDDNVTAKLVYIFSDLLMNNDIEATTNIQFQSFWDNVKRISSDILVSLFGSFDQQRGFIIEELLSHIEKLPTKRIQKKLRKVGNQNIYITDFTFTLMSMLENINCYSFCNQMKDIAPENIDLLKNEYKKQEEFLFNIVEHINDTILERFFKNPSALRYVIDNFVQDLLLLISSPQWPVTEKILSSLLKRLLSVYSPSMQVSANIETICLQLIGNIGSTIFDIKCSTRDHEDNNLIKMINYPETLPHFFKSFEECIAYNETIKCRRSATRFLWNLRLGTILILEEYTKDAKEQIITVDNELKKILEQIKDGGLGPELENREADFSTIKLDYFSILHAFELLNLYDPYLKLILSLLAKDKIKLRSTAIKCLSMLASKDKVILSNPMVKETIHRRLNDSSASVKDAILDLVSINSSYFEFYQQINNNYNDDSIMVRKHVLRINEKMYDETNDIVTKVYVIARILMKIEDEEDNIIDMARLILLNRWILKVHEVLDQPEKLKEISSSVLLVMSRVAIMNEKCSQLFDLFLNFYLLNKEAHSKEAYDKITHVLTILTDFLVQKIVELNSDDTNEKNSIVDKQNFLNLLAKFADSTVSFLTKDHITALYPYMVSDEKSDFHYYILQVFRCTFEKLANFKQKFLYDLETTLLSRLPKMNVREIDEAMPLIWSVATHRHDTARVAKACSSCLSHLHPYINKANNEEAAIVVDGKLQRLIYLSTGFARFCFPKPSNDKIAFLQEGETLYEHITKCLLVLSKDKITHVIRRVAVKNLTKLCGNHPKLFNSRHVLHLLDKEFQSDQLDIKLVILESLYDLFLLEERKSVRNTGVNSTLSSNSILKKKLLKTNRVEFANDGVCSALATRFLDNILQLCLLRDLKNSLVAIRLLKLILKFGYTNPSHSIPTVIALFASTSQYIRHVAYELLEDLFEKYETLVFSSLSRGVTKAIHYSIHTDEKYYYKHDHFLSLLEKLCGTGKKNGPKFFKVLKRIMQSYLDDITDLTSTNSSVQKSIFVLCTNISNITFVSQYDLVSLLKTIDLTTDRLKEVIMDEIGDNVSSLSVSEEKLSGIILIQLSLQDLGTYLLHLYGLRDDVLLLDIVEESELKNKQLPAKKPDISKFSAQLENIEQYSSNGKLLTYFRKHVKDT
For the molecule B1, in test [1], the binding entry was “binds”.

B2: S. cerevisiae Scc3, recombinant (the Scc3 chain of m1) (protein, UniProt P40541 1-1150)
chain: MTAVRRSTRIRTKSQVIEEDYDDEQNTSAQHVESDKITAKTQHEEEEEQDTGESEESSSEDDYEDQDDDDYVDTATAKRKSRKRKPKSASNTSSKRQKKKPTSAQKSAVSHAPAYHRSKKDQDQYLEIAKDFQPTELFDILSTSEDVSIEELLREWLETYSENRDKFLQEFINLLLNCCGSVARVEDHDVHSNESSNETIGEIQLLFQRQKLHEFYLLISKENKKRKNFKMGPLYQNFAEFMTKLLEVANDLQLLYVESDEDDTQIVTGNLVLDLLTWLSSFSVCKIRCFRYISTLTLYLFQDYLTQQAVNLEKNYLAKLSKQLSLEEKKKRPNNKTLEKLESTIAETQGSKVVIDSIIDNIVKLCFVHRYKDVSDLIRSESMLHLSIWIKNYPEYFLKVTFLKYFGWLLSDNSVSVRLQVTKILPHLIIQNHNSKSTDNSAIRQVFERFKTKILEVAIRDVNLDVRIHSIQVLTEASSLGYLDDSEILIISSLMFDEEFDPFKTSSFNKRSKFLSTVAKFLARVIKEKFDEFIKTHEDLPKEVDGLEVGPVVQVGIFIKILNDSLIYHLKDCAEVDSRTKIRMLTQAAEFLSPYISTHLKTICNLLISDTESNELIQKLQNSANNNSDDEDVDDEELDITPLFPIDRNSTILYLNVFHGLCAGANNPKIQTKDSVKEIVLPLFYDLLNAASIESADILCPLLESFITFSLDDWISIGYETELKKITDKTIKAFMDSTIGNSKVDMKYDIFAKFIHHIHHFEKKELQEKFLNQIATLKIHLKKFLQEKMDPNNSRDDYKDLTCSLYELYINKLTILGRDYPIEVDEELLQLFLNNFVSRIPIMFQDFDDSTAQEINFKMLVLLATWNLEKWREIIEKVRDYENSISKDLRSVWKPIAAIIGRLNTLVISLAATNETFENINSLFYLKWSACTSLMDIIVAIKIFELKLPADATTWRYSMSEQFPFYLHDNASKVLLKIFLYLESLFAKQVDVQLERVADEDANLNDLPETGFFENIETEFLLFTVKLKGLMKLNILDERFASRVALNKEKLGPLFKKIVDDTIMENPEPNKKNIQKAKSNQTQREKAPLQPNSERETDHANTENNDPDIPMTIDLEPIEESSQNNSELAPIEEHPTVVDAIDNSDEITQD
As to B2, the binding result in test [2] is recorded as “binds”.
